From paper PMC12109034
These are yes or no findings as the source states them, for the method shown. In cells and extracts the contact can be indirect. Sequences can lack the tags named with a protein.

Sequences of proteins named here, by UniProt entry; tags and fusion partners are left off. Residues count along the entry.
UniProt O22476, residues 24-1196: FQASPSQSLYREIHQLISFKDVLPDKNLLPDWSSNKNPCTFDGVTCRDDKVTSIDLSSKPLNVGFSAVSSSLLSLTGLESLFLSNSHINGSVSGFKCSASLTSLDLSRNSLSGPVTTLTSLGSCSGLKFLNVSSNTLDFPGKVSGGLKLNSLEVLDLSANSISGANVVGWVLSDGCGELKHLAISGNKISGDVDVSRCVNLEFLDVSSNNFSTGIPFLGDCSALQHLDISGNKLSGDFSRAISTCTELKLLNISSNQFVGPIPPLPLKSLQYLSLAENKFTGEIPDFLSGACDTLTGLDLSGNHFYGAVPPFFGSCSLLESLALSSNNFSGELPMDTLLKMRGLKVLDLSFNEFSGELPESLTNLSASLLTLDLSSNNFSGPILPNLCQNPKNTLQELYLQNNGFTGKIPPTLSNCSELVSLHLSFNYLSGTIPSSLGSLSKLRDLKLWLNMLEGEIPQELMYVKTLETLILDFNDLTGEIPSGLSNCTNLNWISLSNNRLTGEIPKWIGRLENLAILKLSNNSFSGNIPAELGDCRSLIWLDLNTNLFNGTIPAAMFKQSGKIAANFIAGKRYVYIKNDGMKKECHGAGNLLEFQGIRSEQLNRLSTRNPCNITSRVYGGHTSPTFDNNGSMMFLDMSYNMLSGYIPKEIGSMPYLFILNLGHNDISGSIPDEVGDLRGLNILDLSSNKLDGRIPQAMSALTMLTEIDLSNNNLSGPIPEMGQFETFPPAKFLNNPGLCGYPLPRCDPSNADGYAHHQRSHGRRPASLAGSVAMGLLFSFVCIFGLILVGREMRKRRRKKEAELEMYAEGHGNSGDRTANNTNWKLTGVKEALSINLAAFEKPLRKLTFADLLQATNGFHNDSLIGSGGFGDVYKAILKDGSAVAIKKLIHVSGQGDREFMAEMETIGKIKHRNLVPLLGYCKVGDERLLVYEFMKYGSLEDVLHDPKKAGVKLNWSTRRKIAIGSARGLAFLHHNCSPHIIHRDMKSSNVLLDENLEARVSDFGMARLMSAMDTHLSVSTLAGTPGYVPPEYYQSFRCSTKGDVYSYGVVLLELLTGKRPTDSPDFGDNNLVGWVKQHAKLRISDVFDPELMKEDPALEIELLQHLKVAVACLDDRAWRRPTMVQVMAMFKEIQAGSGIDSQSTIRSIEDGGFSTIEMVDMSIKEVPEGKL

Biological target: BRI1-cYFP (UniProt O22476)
Assay: split reporter; BiFC with nYFP and cYFP fusions in N. benthamiana leaf epidermal cells, confocal microscopy two days after co-infiltration

B1: At-I2-nYFP (protein, UniProt Q9LTK0 1-191)
chain: MTEPKRGRVQWDEANIVEIESNKPVRQKITEPKTPYHPMMDDDGSLSPRGRAFDECVDDMQRAEELRNVLNDAAASSSRNSSQGSGGGGWSSSDEEEEEADPMDQDEEGSGSGKNERFNAHRKAHYDEFRKVKELRSSGSFYEEEEEEDDGAKGSKSETTTNSRHTKGGNKELDATKTVSGTSSSSSPELI
binding: no binding
